Measurements as given in article PMC7862700.
The list shows a part of the results, in another mix than the full data. At the low end of the ranking the order means little.

Biological target: SPI1 (UniProt P17947)
Experiment: DAPPL (digital affinity profiling via proximity ligation, sequencing)
Details: 10 mM Tris-HCl pH 7.5, 50 mM NaCl, 1 mM DTT, 4% glycerol, room temperature, 30 min; GST-TFs on glutathione beads, 16-mer random dsDNA library, 0.1% …; high values mean tight binding; double strand, one strand shown; scale: fold enrichment (6-mer frequency, TF over GST control)

Sequence	binding signal
ATTTTA	1.34
GCGCGC	1.05
AGCTAG	1.08
GAAGCC	0.975
GCAATT	1.23
AGCATA	0.927
AAGGCA	0.96
GCCCCA	0.972
GCAACA	0.872
GCGTTG	0.93
GAACTA	1.41
ATTGCA	1.19
TTAGAT	0.99
GCCACT	1.17
CATAGC	0.986
TGTCAA	1
GATCTG	0.853
CGTCGA	0.91
TAAATC	1.21
CTACGG	1.24

Sequence	binding signal
ACCTGA	1.01
GCTGCT	1.19
AACCCT	1.32
GACGTT	0.968
ACCCAT	1.17
CATTGA	0.927
GGGCAT	0.849
CTGTAG	0.935
ACCGTT	0.891
TGCCGG	0.94
AGGCCC	0.93
CAAGCT	0.897
GCAACC	0.979
TCCGCT	3.26
ATCACG	0.991
CGCGCT	1.1
GCAGAA	0.999
GTGACC	1.32
GGTTGT	0.82

Retrieved one by one from the entries so far:
Sequence	binding signal
GCAGAA	0.999
TGCCGG	0.94
